Experimental data: patent publication US20110189751A1
These are yes or no findings as the source states them, for the method shown. Binding seen in cells or lysates may run through a third protein. Some results given as binding are weak or reduced against the parent protein; the word gives no strength.

Amino acid sequences for entries named in this document (tags omitted). A change or cut given only in a name is not applied to a line headed by its entry.
UniProt Q6Z7B0: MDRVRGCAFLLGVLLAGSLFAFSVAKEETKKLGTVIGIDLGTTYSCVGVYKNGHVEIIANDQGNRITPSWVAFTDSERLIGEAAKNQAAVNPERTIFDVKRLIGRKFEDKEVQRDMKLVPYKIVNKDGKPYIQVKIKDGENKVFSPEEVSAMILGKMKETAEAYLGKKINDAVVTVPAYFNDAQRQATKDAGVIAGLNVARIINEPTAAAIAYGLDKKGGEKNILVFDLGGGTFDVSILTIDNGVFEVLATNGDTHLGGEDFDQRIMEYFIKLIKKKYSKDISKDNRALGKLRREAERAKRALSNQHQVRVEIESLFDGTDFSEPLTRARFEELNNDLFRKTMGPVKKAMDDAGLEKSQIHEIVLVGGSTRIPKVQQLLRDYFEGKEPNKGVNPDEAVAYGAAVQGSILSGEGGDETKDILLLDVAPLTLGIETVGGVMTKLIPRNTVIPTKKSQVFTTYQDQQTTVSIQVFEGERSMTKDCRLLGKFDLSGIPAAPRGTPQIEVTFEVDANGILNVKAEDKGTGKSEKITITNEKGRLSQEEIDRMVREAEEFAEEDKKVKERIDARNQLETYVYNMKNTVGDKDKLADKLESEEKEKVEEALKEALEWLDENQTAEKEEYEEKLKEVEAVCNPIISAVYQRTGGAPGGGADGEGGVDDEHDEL

Legend:
[1] = biological target: rice heat shock protein 70 (Hsp70-ABF95267; gb|ACJ54890.1|) (Oryza sativa Japonica Group) (UniProt P09189); assay: co-elution from ATP-agarose, SDS-PAGE
[2] = biological target: rice endosperm lumenal binding protein (BiP homolog) AAB63469 (Oryza sativa) (UniProt Q6Z7B0); assay: co-elution from ATP-agarose, SDS-PAGE
[3] = biological target: rice heat shock protein 70 (Hsp70-ABF95267; gb|ACJ54890.1|) (Oryza sativa Japonica Group) (UniProt P09189); assay: co-elution from ATP-agarose, SDS-PAGE and peptide mass fingerprinting
[4] = biological target: rice endosperm lumenal binding protein (BiP homolog) AAB63469 (Oryza sativa) (UniProt Q6Z7B0); assay: as above

Measured: binding

recombinant human serum albumin produced in rice (Cellastim, new process B0000C; lots P0153, P0156 and/or P0171) (from UniProt P02768 25-609)
binds: all assays above
